The experiment deals with T1, K(FEFK)2K.
T1 construct: designed amphipathic self-assembling peptide, L-amino acids; printed in short form K(FEFK)2K and written out here; forms beta-sheet-rich fibres and a hydrogel at pH 7; also called base peptide; peptide 1; source: synthetic peptide; bought: LifeTein Inc. (HCl salt, nominal purity 95%)
T1 peptide: KFEFKFEFKK
In words: condition: 3.75 mg mL^-1 of each peptide (mass ratio 1:1); FRET or BRET; FITC/Dabcyl quenching in mixed hydrogels: base peptide 3.75 mg mL^-1 plus secondary peptide, total 7.5 mg mL^-1 (mass ratio 1:1), pH 7, water; powders mixed before dissolving, pH raised stepwise with NaOH; quenching percentage compared with base hydrogels at 3.75 and 7.5 mg mL^-1; both purified. For orientation: BRET reads energy transfer from a luciferase to a nearby fluorophore.

Our source for the binding values is publication PMC12236388, “Investigating the co-assembly of amphipathic peptides” (Faraday Discussions, 2025).

No constants are given. Whether binding was seen depends on the method and setting.

B1: (AEAK)2 (peptide)
peptide: AEAKAEAK
On to B1, for which the binding entry is given as “no binding”.

B2: (VEVK)2 (peptide)
peptide: VEVKVEVK
With B2, the binding result is given as “no binding”.
